Experimental data: doi:10.1101/2025.09.30.679250
These are yes or no findings as the source states them, for the method shown. Binding seen in cells or lysates may run through a third protein. These calls come from enrichment with a bait or labelling near it, and not all partners need be listed.

Target: Recombinant L-CK1.2-V5-His6 fused to thioredoxin (pBAD-thio-topo-L-CK1.2-V5-His6)
Experiment: affinity purification with mass spectrometry

| Binder | binding |
| --- | --- |
| mitochondrial ATP synthase subunit Atp5f1c (protein, UniProt Q91VR2 26-298) ATLKDITRRLKSIKNIQKITKSMKMVAAAKYARAERELKPARVYGTGSLALYEKADIKAPEDKKKHLIIGVSSDRGLCGAIHSSVAKQMKNEVAALTAAGKEVMIVGVGEKIKGILYRTHSDQFLVSFKDVGRKPPTFGDASVIALELLNSGYEFDEGSIIFNQFKSVISYKTEEKPIFSLNTIATAETMSIYDDIDADVLQNYQEYNLANLIYYSLKESTTSEQSARMTAMDNASKNASDMIDKLTLTFNRTRQAVITKELIEIISGAAALD | binds |
| mitochondrial ATP synthase subunit Atp5po (protein, UniProt Q9DB20 24-213) FAKLVRPPVQVYGIEGRYATALYSAASKEKKLDQVEKELLRVGQLLKDPKVSLAVLNPYIKRTVKVKSLNDITKREKFSPLTANLMNLLAENGRLGNTQGIISAFSTIMSVHRGEVPCTVTTASPLDDAVLSELKTVLKSFLSPNQILKLEIKTDPSIMGGMIVRIGEKYVDMSAKSKIQKLSKAMREML | binds |
| Cytochrome b-c1 complex subunit 8 (protein, UniProt Q9CQ69 1-82) MGREFGNLARIRHVISYSLSPFEQRAFPSYFSKGIPNVLRRTRERILRVAPPFVVVYLIYTWGNQEFEQSKRKNPAMYENDK | binds |
| Ndufa1 (protein, UniProt O35683 1-70) MWFEILPGLAIMGVCLVIPGVSTAYIHKFTNGGKEKRVARVQYQWYLMERDRRISGVNRYYVSKGLENID | binds |
| Ndufa10 (protein, UniProt Q99LC3 36-355) LRYGLLAAILGDKTTKKLHEYSRVITVDGNICSGKNKLAKEIAQQLGMKHYPEAGIQYSSTTTGDGRPLDIEFSGSCSLEKFYDDPKSNDGNSYRLQSWLYASRLLQYADALEHLLSTGQGVVLERSIYSDFVFLEAMYNQGYIRKQCVDHYNEIKRLTLPEYLPPHAVIYIDVPVPEVQSRIQKKGDPHEMKVTSAYLQDIENAYKKTFLPKMSEMCEVLVYDSWEAEDPTKVVEDIEYLKYNKGPWLKQDDWTFHYLRMLVQDKTEVLNYTTIPVYLPEITIGAHQGSRIYNSFRELPGRKYAPGYNAEVGDKWIWLK | binds |
| Rcn2 (protein, UniProt Q8BP92 26-320) SKAEELHYPQGEHRADYDREALLGVQEDVDEYVKLGHEEQQRRLQSIIKKIDSDSDGFLTENELSQWIQMSFKHYAMQEAKQQFVEYDKNSDGAVTWDEYNIQMYDRVIDFDENTALDDTEEGSFRQLHLKDKKRFEKANQDSGPGLSLEEFIAFEHPEEVDYMTEFVIQEALEEHDKNGDGFVSLEEFLGDYRRDPTANEDPEWILVEKDRFVNDYDKDNDGRLDPQELLSWVVPNNQGIAQEEALHLIDEMDLNSDKKLSEEEILENQDLFLTSEATDYGRQLHDDYFYHDEL | binds |
| Myo1f (protein, UniProt P70248 1-1099) MGSKERFHWQSHNVKQSGVDDMVLLSQITEDAIVRNLHKRFMDDYIFTYIGSVLISVNPFKQMPYFTDREIDLYQGAVQYEEPPHIYALTDNMYRNMLIDCENQCVIISGESGAGKTVAAKYIMGYISKVSGGGDKVQHVKDIILQSNPLLEAFGNAKTVRNNNSSRFGKYFEIQFSRGGEPDGGKISNFLLEKSRVVMQNENERNFHIYYQLLEGASQEQQQNLGIMSQDYYYYLNQSDTYKVEGTDDRSDFSETLSAMQVMGFRQACQQLVLQLVAGILHLGNISFCEEGNYARVESVDSLAFPAYLLGIDSGRLQEKLTSRKMDSKWGGRSESIDVTLNVEQAAYTRDALAKGLYARLFDFLVEAINRAMQKPQEEYSIGVLDIYGFEIFQKNGFEQFCINFVNEKLQQIFIELTLKAEQEEYVQEGIRWTPIEYFNNKIVCDLIENKLSPPGIMSVLDDVCATMHATGGGADQTLLQKLQAAVGTHEHFNSWSAGFVIHHYAGKVSYDVSGFCERNRDVLFSDLIELMQSSDQDFLRMLFPEKLNIDKKGRPSTAGSKIKKQANDLVSTLKKCTPHYIRCIKPNETKRPRDWEESRVKHQVEYLGLRENIRVRRAGFAYRRQFSKFLQRYAILTPETWPRWRGDERQGVQHLLRAVNMEPDQYQMGSTKVFVKNPESLFLLEEMRERKFDGFARTIQKAWRRHVAVRKYEEMREEASNILLNKKERRRNSINRNFVGNYLGLEERPELRQFLAKRERVDFADSVTKYDRRFKPIKRDLILTPKCVYVIGTEKVKRGPEKGLVREVLKKKLDIQALRGVSLSTRQDDFFILQEEAADTFLESIFKTEFVSLLCKRFEEAARRPLPLTFQDILQFRVKKKGWGGGGTRNVTFSAGQVNLAVLKAGGKTLTISLGDGLPKNSKPTRKGLAQGKPRRSAQAPTRAVPWASQGLNRNGATLFPRGEGPYTLEIYIWPQEFPEASTAIHLQPQDASRRPRARPPSEHSTEFLNVPDQGVAGMQRKRSIGQRPVPASRPKPQPRTHGPRCRALYQYIGQDVDELSFNVNEVIEILIEDSSGWWKGRLHGQEGLFPGNYVEKI | binds |
